From PubChem BioAssay AID493014 (National Center for Advancing Translational Sciences (NCATS), 2011)
Hit rate of the full screen: of about 340,000 compounds, about 170 (0.05%) were called active. Inconclusive results, whose numbers are uncertain, are shown with a selection of clear calls. Calls follow the shape of the dose curve; as a rule, active = well fitted inhibition curve with a large enough effect in the signal ratio, with a control signal flat (not every such curve was filed as active); inconclusive = small, poorly fitted or top-dose-only effect, or effect the other way, or a change in a side signal; inactive = flat fitted curve, though single readings scatter; the % refers to the signal ratio. Where the call is inconclusive, the potency comes from a doubtful curve fit.

Assay: qHTS Assay to Find Inhibitors of Chronic Active B-Cell Receptor Signaling;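 as to activity change, negative = inhibition: plate controls were basal doxycycline-induced cells for no effect and cells given 10 µM MG132 for full effect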
Details: ABC-DLBCL IkBa-CBG/CBR reporter, luminescence ratio (green luciferase fused to IkBa over red control in TMD8 lymphoma cells), 4 h; activity change, negative = inhibition: at 46.1 µM (top of the series) unless noted
In short: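 Compounds up to 46 uM were incubated four hours with TMD8 cells whose green CBG68 luciferase is fused to IkappaBalpha; red CBR luminescence normalised the signal, and concentration-effect curves were fitted to fusion, red and ratio data.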
Potency is read from the fitted curve at half-maximal effect.

| SMILES | activity change, negative = inhibition | Potency |
| --- | --- | --- |
| COc1cc(/C=C(\C#N)C(=O)Nc2cccc3ncccc23)cc(OC)c1OC | inconclusive: -15.7% | – |
| Cn1cc([N+](=O)[O-])c(C(=O)Nc2ccc(C3CCCCC3)cc2)n1 | inactive | – |
| COc1ccc(/C=C/C(=O)Nc2ccc(OC)nc2)cc1 | inactive | – |
| COc1cc(C2C(C(=O)OC(C)C)=C(C)Nc3ncnn32)cc(OC)c1OC (stereo unspecified) | inconclusive: 1.38% | – |
| CCOC(=O)/C(=C/C1=CC(=C/N(C)C)/C(=O)O1)C(C)=O | inactive | – |
| CC(C)[C@H](NC(=O)[C@@H]1CSCN1C(=O)OC(C)(C)C)C(=O)NCC1CCC(C(=O)O)CC1 (stereo partly specified) | inconclusive: 4.82% | – |
| CN(C)C(=O)COc1ccc(S(=O)(=O)c2ccc(OCC(=O)N(C)C)cc2)cc1 | inconclusive: 2.63% | – |
| CN(Cc1nc2ccccc2c(=O)[nH]1)C(=O)c1cccc(S(=O)(=O)N2CCCCCC2)c1 | inactive | – |
| O=C(c1cccs1)n1nc(NCc2ccccc2)nc1NCc1ccccc1 | inconclusive: 12.8% | – |
| S=C(NCCCN1CCOCC1)Nc1ccc(-c2nc3ccccc3[nH]2)cc1 | inconclusive: 18.5% | – |
| Nc1c2c(nc3ccccc13)N(C1CCCCC1)CC2 | inactive | – |
| CC(Sc1nc2ccccc2[nH]1)C(=O)Nc1ccc2c(c1)OCCO2 (stereo unspecified) | inconclusive: -24.8% | – |
| CNS(=O)(=O)c1cc(-c2nnc(Nc3ccc(NC(C)=O)cc3)c3ccccc23)ccc1C | inconclusive: -15.6% | – |
| O=C1N=c2ccccc2=C1c1sc(=S)n(NC(=O)c2ccccc2)c1O | inconclusive: -16.9% | – |
| Cc1cc(Cl)ccc1OCC(=O)NCC(=O)N/N=C/c1ccco1 | inconclusive: 13% | – |
| Cc1ccc(-c2nnc(N3CCN(c4ccccn4)CC3)c3ccccc23)cc1 | inconclusive: -11% | – |
| C=CCOc1c2ccc(C(=O)NCc3ccc(OC)cc3)cc2nn1C | inconclusive: -19.1% | – |
| O=C1c2ccccc2C(=O)N1/N=C/c1ccc(O)c(O)c1O | inconclusive: 1.16% | – |
| O=C(Nc1ccccc1Cl)N1CCN(c2ccccn2)CC1 | – | inconclusive: 14.6 µM [falling, partial curve, poor fit] |
| O=C(CCN1C(=O)/C(=C\c2ccccc2)SC1=S)N1CCOCC1 | inconclusive: 3.24% | – |
| Cc1ccc(C)c(N2CCN(C(=O)c3ccc(N4CCCC4=O)cc3)CC2)c1 | inactive | – |

A draw from above in order of count of non-hydrogen atoms, smallest number first.

| SMILES | activity change, negative = inhibition | Potency |
| --- | --- | --- |
| Nc1c2c(nc3ccccc13)N(C1CCCCC1)CC2 | inactive | – |
| O=C1c2ccccc2C(=O)N1/N=C/c1ccc(O)c(O)c1O | inconclusive: 1.16% | – |
| Cc1cc(Cl)ccc1OCC(=O)NCC(=O)N/N=C/c1ccco1 | inconclusive: 13% | – |
| CC(Sc1nc2ccccc2[nH]1)C(=O)Nc1ccc2c(c1)OCCO2 (stereo unspecified) | inconclusive: -24.8% | – |
| S=C(NCCCN1CCOCC1)Nc1ccc(-c2nc3ccccc3[nH]2)cc1 | inconclusive: 18.5% | – |
| CN(C)C(=O)COc1ccc(S(=O)(=O)c2ccc(OCC(=O)N(C)C)cc2)cc1 | inconclusive: 2.63% | – |

Additional compounds follow.

| SMILES | activity change, negative = inhibition | Potency |
| --- | --- | --- |
| CCCCNCC1CCCO1 (stereo unspecified) | inactive | – |
| Cn1nc(-c2ccccc2)c(C(O)c2ccc(Cl)cc2)c1Cl (stereo unspecified) | inactive | – |
| COC(=O)C1CCN(C(=O)COC(=O)c2cc(-c3ccccc3)nc3ccc(OC)cc23)CC1 | inconclusive: 1.44% | – |
| Cc1nn(CCCC(=O)Nc2cccnc2Cl)c(C)c1[N+](=O)[O-] | inconclusive: -18.3% | – |
| Cc1nc(SCc2ccc([N+](=O)[O-])cc2)nc2ccccc12 | inconclusive: 1.53% | – |
| CCOc1ccc(NC(=O)COC(=O)c2n[nH]c3ccccc23)cc1 | – | inconclusive: 25.9 µM [falling, partial curve, poor fit] |
| COc1cccc(C2(c3cccc(OC)c3)CC2C(=O)Nc2cccc3ccccc23)c1 (stereo unspecified) | inconclusive: -51.7% | – |
| O=C(CS(=O)(=O)c1c[nH]c2ccccc12)NC1CCCCC1 | – | inconclusive: 29.1 µM [falling, single point] |
| Cc1cc2c(ccc3[nH]onc32)n1 | – | inconclusive: 35.5 µM [rising, single point] |
| COc1ccccc1C1CC(c2ccco2)=NN1S(C)(=O)=O (stereo unspecified) | inconclusive: 12.7% | – |
| CCOc1ccc(CCNC(=O)CCN2N=C(c3ccc(OC)cc3)CCC2=O)cc1OCC | inconclusive: -4.46% | – |
| O=c1c2ccccc2nc(-c2ccc(Cl)cc2Cl)n1O | inactive | – |
| Cc1ccc(Nc2nc(-c3ccccc3)c(CC(=O)O)s2)cc1 | inconclusive: -10.9% | – |
| COc1ccccc1-n1cnc2cc(NS(=O)(=O)c3ccc(Br)cc3)ccc21 | inconclusive: 21% | – |
| OC(CNCc1ccc2c(c1)OCO2)COc1ccc(F)cc1 (stereo unspecified) | inconclusive: -7.89% | – |
| O=C(CCc1nc2ccccc2c(=O)[nH]1)OCc1ccccc1F | inconclusive: -13.5% | – |
| Cc1ccc(NC(=O)COC(=O)c2ccccc2-c2nc3ccccc3s2)c(C)c1 | inactive | – |
| N/C(=N\OC(=O)Cc1ccccc1[N+](=O)[O-])c1cccc(Br)c1 | inconclusive: 16.7% | – |
| O=C(COC(=O)/C(=C/c1cccs1)c1cccs1)NCc1ccccc1Cl | inconclusive: -9.76% | – |
| COc1cc(C(=O)NNC(=O)COc2cccc(F)c2)ccc1OCC(=O)N1CCOCC1 | inconclusive: 6.6% | – |
| CCOC(=O)c1c(-c2ccc(C)o2)csc1NC(=S)NC(=O)c1ccc(F)cc1 | inactive | – |

| SMILES | activity change, negative = inhibition | Potency |
| --- | --- | --- |
| CN1/C(=C\C(=S)NC(=O)c2ccccc2Cl)C(C)(C)c2ccccc21 | inactive | – |
| CC(=O)Nc1ccc(NC(=O)Nc2cccc(C)c2C)cc1 | – | inconclusive: 5.62 µM [falling, full curve] |
| CCC(=O)N(C)C(c1ccccc1Cl)c1nnnn1-c1c(C)cccc1C (stereo unspecified) | inconclusive: -20.9% | – |
| C=C1CCC[C@]2(C)C[C@H]3OC(=O)C(CNCC(OC)OC)[C@H]3CC12 (stereo partly specified) | inconclusive: -3.47% | – |
| O=C(Cc1ccc(F)cc1)Nc1cccc(S(=O)(=O)N2CCCC2)c1 | – | inconclusive: 2.91 µM [rising, partial curve, poor fit] |
| Cc1ccc(OC/C(=N\O)C(C)(C)C)c([N+](=O)[O-])c1 | – | inconclusive: 35.5 µM [falling, single point] |
| O=C(Nc1cc(S(=O)(=O)N2CCCCC2)ccc1Cl)c1ccccc1NS(=O)(=O)c1ccc(F)cc1 | inconclusive: 0.294% | – |
| O=C(CNc1ccc2ccccc2c1)N/N=C/c1ccc(C(=O)O)cc1 | – | inconclusive: 35.5 µM [falling, single point] |
| CCNc1sc(C(=O)c2cccs2)c(N)c1-c1nc2ccccc2s1 | – | inconclusive: 22.4 µM [falling, single point] |
| O=S(=O)(c1ccc2ccccc2c1)N1CCCCC1 | inconclusive: -1.58% | – |
| Cc1ccc(NC(=O)c2nc[nH]c2C(=O)NCCCCCCNC(=O)c2[nH]cnc2C(=O)Nc2ccc(C)cc2)cc1 | inactive | – |
| CCCCc1nc(S(=O)(=O)c2ccc(Cl)cc2)c(N2CCOCC2)o1 | inconclusive: 13.8% | – |
| COc1cc(OC)c2ccc(=O)oc2c1C(CC(=O)N1CCCC1)c1ccc2c(c1)OCO2 (stereo unspecified) | inactive | – |
| CCCN(CCC)S(=O)(=O)c1ccc(C(=O)Nc2nc3c(s2)CCc2ccccc2-3)cc1 | inconclusive: -17.2% | – |
| CCOC(=O)N1CCC(Nc2c(Nc3ccc(F)cc3)c(=O)c2=O)CC1 | – | inconclusive: 16.4 µM [falling, partial curve] |
| COC(=O)c1ccccc1NC(=O)C/C(C)=N/NC(=O)CC#N | – | inconclusive: 11.2 µM [falling, partial curve] |
| CCOC(OCC)c1ccc(/C=C\c2nccc(N)n2)cc1 | inconclusive: 3.35% | – |
| Cc1cccc(/N=C/c2nc(-c3ccccc3Br)oc2O)n1 | – | inconclusive: 35.5 µM [falling, single point] |
| COC(CN(C)C(=O)c1ccc2c(c1)NC(=O)c1ccccc1S2)OC | inconclusive: -10.8% | – |
| CCn1nc(C(=O)Nc2ccccc2N2CCCC2)c2ccccc2c1=O | inconclusive: 0.293% | – |
| CC(=O)N1CCc2c(sc3c2c(=O)n(-c2cccc(Cl)c2)c(=O)n3Cc2ccc(F)cc2Cl)C1 | inactive | – |

| SMILES | activity change, negative = inhibition | Potency |
| --- | --- | --- |
| COc1ccccc1CNC(=S)NCc1ccc(F)cc1 | inactive | – |
| COc1cc([C@H]2Oc3c(OC)cc(CCCO[C@@H]4O[C@H](CO)[C@@H](O)[C@H](O)[C@H]4O)cc3[C@@H]2CO)ccc1O | inconclusive: 13.3% | – |
| O=C(NNC(=S)Nc1ccc(Cl)cc1)c1cccs1 | – | inconclusive: 35.5 µM [rising, single point] |
| CCN1CCN(CCNC(=O)c2ccc(/C=C3/Sc4ccccc4N(Cc4ccccc4C)C3=O)cc2)CC1 | – | inconclusive: 35.5 µM [falling, single point] |
| O=C(NCc1ccc2c(c1)CCN2C(=O)c1ccc(Cl)cc1)c1ccco1 | – | inconclusive: 0.282 µM [rising, full curve, poor fit] |
| CCc1nnc(NC(=S)Nc2ccccc2)s1 | inconclusive: 174% [cytotoxic] | – |
| CC(C)CC(=O)NC(=S)Nc1nc(-c2ccc(Cl)cc2)cs1 | inconclusive: 8.5% | – |
| CC(C)Oc1ccc(Br)cc1/C=N\NC(N)=S | – | inconclusive: 23.1 µM [falling, single point] |
| CCN(CC)S(=O)(=O)c1ccc(C(=O)Nc2cc(S(=O)(=O)N3CCOCC3)ccc2O)cc1 | inactive | – |
| Cc1ccc(Cn2c(C(=O)O)cc3sccc32)cc1 | inconclusive: 0.823% | – |
| O=C(Nc1ncc(Cc2ccccc2Cl)s1)C1=NCCN1 | inactive | – |
| COc1ccc(NC(=S)N2CCCC2c2ccc(OC)c(OC)c2)cc1 (stereo unspecified) | – | inconclusive: 3.16 µM [falling, partial curve, poor fit] |
| CCC(C(N)=NCCc1ccc(OC)c(OC)c1)c1ccccc1 (stereo unspecified) | inactive | – |
| Fc1ccc(C2CCCCN2Cc2nc(CC3CC3)no2)cc1 (stereo unspecified) | inconclusive: 12.9% | – |
| O=C(/C=C/c1ccccc1)c1ccc2c(c1)OCCCCO2 | – | inconclusive: 35.5 µM [falling, single point] |
| O=c1cc(O)nc(-c2ccccc2)s1 | – | inconclusive: 28.2 µM [falling, single point] |
| Cc1[nH]c2ccc(CNS(=O)(=O)c3ccc(S(=O)(=O)N4CCOCC4)cc3)cc2c1C | inconclusive: 7.61% | – |
| Cc1ccc(NC(=S)c2nc3ccccc3[nH]2)c(C)c1 | inconclusive: -1.32% | – |
